Assay results taken from patent publication CN116410313A.
Where a chain is given by its changes, count along the chain named. Results are given in words; binding and its absence hold for the method and conditions named. Some binding calls cover weakened binding; strength is not graded here. Blank lines part the entries; values can stand above or below the binder they belong to.

Amino acid sequences for entries named in this document (tags omitted). A change or cut given only in a name is not applied to a line headed by its entry. Residues count along the entry.
UniProt P28908: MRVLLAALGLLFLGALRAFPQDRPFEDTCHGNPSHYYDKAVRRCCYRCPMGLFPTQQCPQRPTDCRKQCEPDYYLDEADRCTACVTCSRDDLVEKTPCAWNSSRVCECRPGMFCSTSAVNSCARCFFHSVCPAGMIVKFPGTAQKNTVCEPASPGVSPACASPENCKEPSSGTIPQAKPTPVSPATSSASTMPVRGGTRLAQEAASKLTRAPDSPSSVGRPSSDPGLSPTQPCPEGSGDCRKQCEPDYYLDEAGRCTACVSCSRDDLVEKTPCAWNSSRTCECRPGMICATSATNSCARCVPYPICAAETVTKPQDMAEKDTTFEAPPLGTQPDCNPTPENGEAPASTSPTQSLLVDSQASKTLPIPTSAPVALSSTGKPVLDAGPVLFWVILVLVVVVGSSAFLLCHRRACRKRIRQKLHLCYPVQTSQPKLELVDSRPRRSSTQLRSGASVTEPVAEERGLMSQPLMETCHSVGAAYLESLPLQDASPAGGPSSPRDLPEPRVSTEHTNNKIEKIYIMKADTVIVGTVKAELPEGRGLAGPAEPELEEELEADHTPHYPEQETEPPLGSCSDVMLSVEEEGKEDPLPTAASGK
CD30 on CHO-CD30重组细胞株: residues 19-595 of P28908
CD30 Protein, Human, Recombinant (Fc Tag): residues 19-379 of P28908

What was measured:
CD30 on CHO-CD30重组细胞株 [1] = biological target: CD30 on CHO-CD30重组细胞株 (UniProt P28908); assay: flow cytometry, chimeric antibody 293F supernatant on CHO-CD30 cells
CD30 on CHO-CD30重组细胞株 [2] = biological target: CD30 on CHO-CD30重组细胞株 (UniProt P28908); assay: flow cytometry on CHO-CD30 cells (discussion)
[3] = biological target: CD30 Protein, Human, Recombinant (Fc Tag) (human) (UniProt P28908); assay: SPR (BiaCore T200), CD30-Fc immobilised on CM5 chip, antibody as analyte
CD30 on CHO-CD30重组细胞株 [4] = biological target: CD30 on CHO-CD30重组细胞株 (UniProt P28908); assay: flow cytometry, humanized antibody 293F supernatant on CHO-CD30 cells

binding (CD30 on CHO-CD30重组细胞株 [1]): binds
binding (CD30 on CHO-CD30重组细胞株 [2]): binds
B1: 7-B8-G10-D10嵌合抗体 (antibody, V domains shown)
VH: EVMLVESGGGLVQPGGSLKLSCATSGFTFSDYYMYWVRQTPEKRLEWVAYISNGGGYTFYSDTVKGRFTISRDNTKNTLSLQMSRLKSEDTAMYYCARQGILDGGAYWGQGTLLTVSA
VL: DIVMTQSPATLSVTPGDSVSLSCRASQNVTNNLHWYQQKSHESPRLLIKYASQSISGIPSRFSGSGSGTDFTLSINNVETEDFGMYFCQQTNSWPLTFGAGTKLELK

binding (CD30 on CHO-CD30重组细胞株 [1]): binds
binding (CD30 on CHO-CD30重组细胞株 [2]): binds
B2: 7-H11-E4-F9嵌合抗体 (antibody, V domains shown)
VH: EVQLQQSGAELVRPGASVKLSCKASGYSFTSYWMNWVKQRPGQGLEWIGMIHPSDSETRLNQKFKDKATLTVDKSSSTAYMQLSSPTSEDSAVYYCASPMDYYYAMDYWGQGTSVTVSS
VL: DIVLTQSPASLAVSLGQRATISCRASESVDSYGNSFMHWYQQKPGQPPKLLIYRASNLESGIPARFSGSGSRTDFTLTINPVEADDVATYYCQQSNEDPTWTFGGGTKLEIK

binding (CD30 on CHO-CD30重组细胞株 [1]): binds
binding (CD30 on CHO-CD30重组细胞株 [2]): binds
binding [3]: binds
B3: 7-A2-E8-E6嵌合抗体 (antibody, V domains shown)
VH: EVQLQQSGAELVRPGSSVKISCKASGYAFSSYWMNWVKQRPGQGLEWIGQIYPGDGDTNYNGKFKGKATLTADKSSSTAYMQLSSLTSEDSAVYFCARRINGNFAMDYWGQGTSVTVSS
VL: EIVLTQSPASLAVSLGQRATISCRASESLEYYGTSLMLWYQQKPGQPPKLLIYSASNVESGVPARFSGSGSGTDFSLNIHPVEEDDIAMYFCQQRRKVPSTFGGGTKLEIK

binding (CD30 on CHO-CD30重组细胞株 [4]): binds
binding (CD30 on CHO-CD30重组细胞株 [2]): binds
B4: 人源化抗体 7-A2-E8-E6-hVH-0917 + 7-A2-E8-E6-hVL-N1 (antibody, V domains shown)
VH: EVQLVQSGAEVKKPGSSVKVSCKASGYAFSSYWMNWVKQAPGQGLEWIGQIYPGDGDTNYNGKFKGRVTLTADKSSSTAYMELSSLRSEDTAVYFCARRINGNFAMDYWGQGTLVTVSS
VL: EIVLTQSPDSLAVSLGERATINCRASESLEYYGTSLMLWYQQKPGQPPKLLIYSASNVESGVPDRFSGSGSGTDFSLTISSLEPEDIAMYFCQQRRKVPSTFGGGTKVEIK

binding (CD30 on CHO-CD30重组细胞株 [4]): binds
binding (CD30 on CHO-CD30重组细胞株 [2]): binds
B5: 人源化抗体 7-A2-E8-E6-hVH-0917 + 7-A2-E8-E6-hVL (antibody, V domains shown)
VH: B4 VH
VL: EIVLTQSPATLSLSPGERATLSCRASESLEYYGTSLMLWYQQKPGQPPKLLIYSASNVETGIPARFSGSGSGTDFTLTISSLEPEDFAVYFCQQRRKVPSTFGGGTKVEIK

binding (CD30 on CHO-CD30重组细胞株 [4]): binds
binding (CD30 on CHO-CD30重组细胞株 [2]): binds
B6: 人源化抗体 7-A2-E8-E6-hVH + 7-A2-E8-E6-hVL-N1 (antibody, V domains shown)
VH: B4 VH with K38R, I48M, K65Q, S76T
VL: B4 VL

binding (CD30 on CHO-CD30重组细胞株 [4]): binds
binding (CD30 on CHO-CD30重组细胞株 [2]): binds
B7: 人源化抗体 7-A2-E8-E6-hVH + 7-A2-E8-E6-hVL-0917 (antibody, V domains shown)
VH: B4 VH with K38R, I48M, K65Q, S76T
VL: B5 VL with T60S, T76S, V89M

binding (CD30 on CHO-CD30重组细胞株 [4]): binds
binding (CD30 on CHO-CD30重组细胞株 [2]): binds
binding [3]: binds
B8: 人源化抗体7-A2-E8-E6-hVH+hVL (antibody, V domains shown)
VH: B4 VH with K38R, I48M, K65Q, S76T
VL: B5 VL

binding (CD30 on CHO-CD30重组细胞株 [4]): binds
binding (CD30 on CHO-CD30重组细胞株 [2]): binds
binding [3]: binds
B9: 人源化抗体7-A2-E8-E6-hVH-0917+hVL-0917 (antibody, V domains shown)
VH: B4 VH
VL: B5 VL with T60S, T76S, V89M

binding (CD30 on CHO-CD30重组细胞株 [1]): binds
binding (CD30 on CHO-CD30重组细胞株 [2]): binds
B10: 8-F2-H8-D6嵌合抗体 (antibody, V domains shown)
VH: EVTLKVSGPGISQPSQTLSLTCSFSGFSLSTYGMGVSWIRQPSGKGLEWLAHIYWDDDKRYNPSLKSRLTISKDTSSNQVFLKITSVDTADTATYYCARRAELRDFYFDYWGQGTTLTVSS
VL: DIVMTQSPKFMSTSVGDRVSVTCKASQNVNTNVAWYQQKPGQSPKALIYSASYRYSGVPDRFTGSGSGTDLTLTIINIQSEDLAEYFCQQYNTYPLTFGVGTKLELK
